The source of these data is PubChem BioAssay AID1487 (National Center for Advancing Translational Sciences (NCATS), 2009).

Structures are written as SMILES. The list shows a part of the results. The main result of the screen is listed elsewhere. These columns were measured beside it and carry no call. Compounds called inactive in the main read-out are mostly missing here. Words in brackets tell the shape of the fitted curve; partial curves, single points and poor fits give uncertain potencies.

The term AC50 denotes the concentration giving half of the maximal activity seen.

The nature of this assay: qHTS Assay for Modulators of Lamin A Splicing. To be noted: HeLa LMNA splicing GFP/RFP minigene ratio, 48 h. The method, boiled down:
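S3 HeLa stable clones carrying a lamin A-EGFP splicing minigene plus DsRed2 were seeded at 600 cells/well in Opti-MEM with 2% FBS, pin-dosed and incubated 48 h at 37°C. Acumen cytometry (488 nm) gave the GFP/RFP total-intensity ratio.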
Background: Quantitative high-throughput screening tests each substance at several concentrations.

Setting [1] is: measured here: RFP viability control channel.
[2] abbreviates: measured here: GFP splicing reporter channel.

On to `Cc1ccccc1NC(=O)c1cc(C(=O)c2cc(Cl)ccc2O)cn(-c2ccccc2C)c1=O`, for which the AC50 under setting [1] was 17.8 µM [rising, partial curve].

Take `O=C1CCNc2cc3ccccc3cc21`: the AC50 runs as follows: under setting [2], 25.1 µM [falling, single point]; under setting [1], 35.5 µM [falling, single point].

For `Cc1ccc(N2CCN(C(=O)c3c(C)oc4ncn(C)c(=O)c34)CC2)c(C)c1`, under setting [2], the AC50 was 0.00631 µM [rising, full curve, poor fit].

Consider `COCCN(CCOC)c1ncc(Cl)c(C(=O)c2c(C)cc3ccccn23)n1`, for which the AC50 is 7.94 µM [rising, partial curve, poor fit] under setting [2] and 15.8 µM [rising, single point] under setting [1].

On to `CCN(CC)c1ccc(NC(=O)COCc2cc(-c3ccc4c(c3)OCO4)on2)c(C)c1`, for which the AC50 under setting [2] was 5.01 µM [falling, single point].

For the compound `CCOC(=O)CCc1nn(C)c(=O)c2ccccc12`, the AC50 runs as follows: under setting [2], 35.5 µM [rising, single point]; under setting [1], 35.5 µM [rising, single point].

On to `CC(N=Cc1cccc(O)c1O)c1ccccc1` (configuration not stated), for which the AC50 under setting [2] was 10 µM [rising, partial curve].

For `O=C(/C=C/c1ccc2c(c1)OCO2)Nc1nc(-c2ccc(F)cc2F)cs1`, the concentration at half-maximal activity (AC50) under setting [2] is 3.16 µM [rising, full curve] and the AC50 under setting [1] is 7.08 µM [rising, partial curve].

`CC(=O)Oc1ccc2ccccc2c1C(NC(=O)Cc1ccccc1)c1ccccc1Cl` (configuration not stated): the concentration at half-maximal activity (AC50) under setting [2] was 35.5 µM [falling, partial curve, poor fit] and the AC50 under setting [1] is 35.5 µM [falling, partial curve, poor fit].

In the case of `CN(/N=C/c1ccc(O)cc1O)c1nc(-c2ccccc2)cc(-c2ccccc2)n1`, the AC50 is 22.4 µM [falling, partial curve] under setting [2] and 12.6 µM [falling, single point] under setting [1].

As for `COc1ccccc1-c1nc(CNC(=O)NC2CCCCC2)c(C)o1`, the AC50 under setting [1] was 0.126 µM [rising, full curve, poor fit].

For the compound `CC(C)C[C@H](NC(=O)[C@@H](O)[C@H](N)Cc1ccccc1)C(=O)O`, the AC50 under setting [2] is 1 µM [rising, full curve, poor fit].

Regarding `CC(Oc1ccc(-c2ccccc2)c(F)c1)c1ccn(S(=O)(=O)c2ccc(F)cc2)n1` (configuration not stated), under setting [1], the AC50 is 22.4 µM [rising, single point].

Consider `Cc1cc(C)c(C(=O)/C=C/C=C/c2ccccc2)c(=O)[nH]1`, for which the AC50 under setting [1] is 11.2 µM [rising, partial curve, poor fit].

Consider `Nc1nn(S(=O)(=O)c2cccc3nsnc23)cc1-c1ccc(Br)cc1`, for which the AC50 by setting is: under setting [2], 35.5 µM [rising, single point]; under setting [1], 17.8 µM [rising, single point].

Regarding `CC(=O)c1c(C(C)=O)c(C)n(Cc2ccccc2)c1C`, the AC50 under setting [1] is 35.5 µM [rising, single point].

As to `CS(=O)(=O)c1ccc2nc(NC(=O)c3cccs3)sc2c1`, the AC50 under setting [1] was 10 µM [rising, partial curve, poor fit].

For `COCCn1c(C)cc(O)c(C(c2ccccc2)N2CCN(c3ccccc3F)CC2)c1=O` (configuration not stated), the AC50 under setting [1] was 1.58 µM [rising, partial curve].

As to `CC(=O)NCCn1c(SCc2cc(=O)n3cc(Cl)ccc3n2)nc2ccccc2c1=O`, the AC50 under setting [2] is 3.55 µM [falling, single point].

In the case of `COc1ccc(N2CCN(C(=O)CCNS(=O)(=O)c3ccc(Br)s3)CC2)cc1`, the AC50 under setting [1] was 35.5 µM [rising, single point].

For `O=C(CCCSc1nc2ccccc2c(=O)[nH]1)c1ccc(F)cc1`, under setting [1], the AC50 was 0.224 µM [rising, full curve, poor fit].

Consider `CCN(CC)S(=O)(=O)c1ccc(C)c(NC(=O)/C=C/c2cccs2)c1`, for which the AC50 is 15.8 µM [rising, single point] under setting [2] and 31.6 µM [rising, single point] under setting [1].

For the compound `CCS(=O)(=O)c1ccc(C(=O)N2CCN(c3nc4c(OC)ccc(C)c4s3)CC2)cc1`, the AC50 under setting [2] is 14.1 µM [falling, partial curve, poor fit].

As to `CCN(CC(=O)NC1CCS(=O)(=O)C1)c1nc(-c2ccccc2)nc2ccccc12` (configuration not stated), the concentration at half-maximal activity (AC50) is 14.1 µM [rising, single point] under setting [2] and 12.6 µM [rising, single point] under setting [1].

Regarding `Cc1ccc(C(=O)NC(=S)Nc2ccccc2N2CCCC2)cc1[N+](=O)[O-]`, the AC50 under setting [1] was 2.51 µM [rising, full curve].

As to `CCC(/C=N/NC(=O)c1ccccc1F)CC`, the AC50 under setting [2] was 7.08 µM [falling, full curve, poor fit] and the AC50 under setting [1] was 6.31 µM [falling, full curve, poor fit].

For the compound `O=C1C2CCCN2C(c2cccs2)N1c1ccc(F)cc1` (configuration not stated), the AC50 was 0.355 µM [rising, full curve, poor fit] under setting [2] and 0.282 µM [rising, partial curve, poor fit] under setting [1].

With `COC(=O)c1sccc1NC(=O)Cc1ccc(OC)c(OC)c1`, the concentration at half-maximal activity (AC50) under setting [1] was 14.1 µM [rising, partial curve].

On to `CCOC(=O)N1CCc2c(sc(NCc3cc(OC)ccc3OC)c2C(=O)Nc2cc(OC)ccc2OC)C1`, for which the AC50 under setting [1] is 1.41 µM [falling, full curve, poor fit].

For the compound `COc1cc2c(cc1NC(=O)c1ccc(C(C)(C)C)cc1)CCCC2`, the AC50 under setting [2] was 6.31 µM [rising, partial curve] and the AC50 under setting [1] was 11.2 µM [rising, partial curve].

Turning to `CCn1c(CCNC(=O)c2ccc(OC)cc2)nnc1SCc1ccc(Cl)c(Cl)c1`, the AC50 under setting [1] is 25.1 µM [rising, partial curve].

As to `OC(COCCOc1ccc(Br)cc1)CN1CCN(Cc2ccccc2)CC1` (configuration not stated), the AC50 under setting [2] was 14.1 µM [rising, single point].

As for `COC(=O)Cc1c[nH]c2cccc(OCC(O)CN(Cc3ccc([N+](=O)[O-])cc3)C(C)(C)C)c12` (configuration not stated), the AC50 reads like this: under setting [2], 35.5 µM [falling, single point]; under setting [1], 35.5 µM [falling, single point].

In the case of `CCOC(=O)c1cc(-c2ccccc2)sc1NC(=O)C(C)OC(=O)c1cccc(S(=O)(=O)N(C)C)c1` (configuration not stated), the AC50 under setting [1] was 0.00316 µM [falling, full curve, poor fit].
